This assay concerns the target T1, TatC (Escherichia coli) (UniProt P69423).
T1 sequence: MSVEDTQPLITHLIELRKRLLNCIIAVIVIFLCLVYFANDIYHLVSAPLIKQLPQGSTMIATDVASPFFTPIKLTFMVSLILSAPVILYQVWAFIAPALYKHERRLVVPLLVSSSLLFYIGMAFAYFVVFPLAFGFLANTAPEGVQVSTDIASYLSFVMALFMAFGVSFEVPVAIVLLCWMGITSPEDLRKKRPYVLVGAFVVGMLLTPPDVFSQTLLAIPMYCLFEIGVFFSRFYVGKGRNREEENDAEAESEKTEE
As to the kind of experiment: native gel or EMSA. On the technique in general: Mobility shift assays separate free from complexed probe on a gel.

The values that follow come from doi:10.1101/2021.05.26.445790.

No constants are given. Whether binding was seen depends on the method and setting. Some binding calls cover weakened binding; strength is not graded here.

B1: TatB (wild type) (protein, UniProt P69425 1-171)
chain: MFDIGFSELLLVFIIGLVVLGPQRLPVAVKTVAGWIRALRSLATTVQNELTQELKLQEFQDSLKKVEKASLTNLTPELKASMDELRQAAESMKRSYVANDPEKASDEAHTIHNPVVKDNEAAHEGVTPAAAQTQASSPEQKPETTPEPVVKPAADAEPKTAAPSPSSSDKP
In the case of B1, the binding result is “binds”.
